PubChem BioAssay AID504764, Drosophila RNAi Screening Center, 2011
The deposit covers about 22,000 reagents; shown is a random part of those with a known target gene and a result. Of all reagents, 403 (1.9%) were called active. 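Unnormalised raw counts per well; ratio z-scores behind the hit calls and whether each hit raises or lowers signal are not deposited.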 Names joined by + are all predicted targets of the reagent. Not given: the amount of reagent.

- Aim: 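Genome-wide screen for regulators of Notch-driven gene expression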 (primary screen)
- Cell system: Drosophila Kc167 cells
- Knock-down reagent: long dsRNA against Drosophila genes
- Time to read-out: about 5 days (4 days dsRNA, then 24 h after transfection)
- Challenge: transfection of constitutively active membrane-tethered Notch lacking the extracellular domain, read 24 h later
- Detection: 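Firefly luciferase from an E(spl)m3 reporter with active Notch, plus control-promoter and uninduced reporter wells for normalisation; unnormalised counts, duplicate wells a and b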
- Direction: induced reporter light, run 1, well a and induced reporter light, run 1, well b: higher = more light from the Notch target reporter with active Notch; control promoter light, run 1, well a and control promoter light, run 1, well b: higher = more light from the viral control promoter (cell number, transfection, viability); uninduced reporter light, run 1, well a: higher = more light from the Notch target reporter without active Notch
- Call rule: 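Wells with low control signal or poorly matching duplicates excluded; duplicates averaged; per source plate, z beyond ±2 for induced/control log2 ratio or beyond ±1.8 for induced/uninduced marks a hit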
- Calls: active = modifier hit (raised or lowered Notch signal); inactive = not a hit

| Target gene | dsRNA | induced reporter light, run 1, well a | induced reporter light, run 1, well b | control promoter light, run 1, well a | control promoter light, run 1, well b | uninduced reporter light, run 1, well a | activity call |
| --- | --- | --- | --- | --- | --- | --- | --- |
| CG1532 | DRSC20516 | 1.08e5 | 88000 | 96775 | 43100 | 7678 | inactive |
| Su(var)2-10 (Suppressor of variegation 2-10) | DRSC07721 | 87430 | 82810 | 1.00e5 | 1.17e5 | 7192 | inactive |
| AQP (aquaporin) | DRSC06122 | 1.22e5 | 1.06e5 | 1.39e5 | 1.29e5 | 9040 | inactive |
| yin | DRSC18854 | 53880 | 49000 | 61110 | 59845 | 4115 | inactive |
| CG4751 | DRSC02776 | 2.06e5 | 2.16e5 | 2.06e5 | 1.94e5 | 17500 | inactive |
| boi | DRSC18425 | 1.41e5 | 1.25e5 | 2.11e5 | 2.20e5 | 8540 | inactive |
| boi | DRSC18598 | 1.12e5 | 1.18e5 | 2.35e5 | 2.43e5 | 9010 | inactive |
| DIP-iota (Dpr-interacting protein iota) | DRSC02140 | 1.70e5 | 1.35e5 | 1.75e5 | 1.68e5 | 9570 | inactive |
| eIF2Bdelta (eukaryotic translation initiation factor 2B subunit delta) | DRSC04058 | 1.55e5 | 2.08e5 | 1.43e5 | 1.71e5 | 12905 | inactive |
| L2HGDH (L-2-hydroxyglutarate dehydrogenase) | DRSC02082 | 2.38e5 | 2.65e5 | 2.81e5 | 2.82e5 | 20585 | inactive |
| mei-217 + mei-218 | DRSC20349 | 1.08e5 | 80730 | 1.20e5 | 98110 | 15160 | inactive |
| CG4891 | DRSC01936 | 1.84e5 | 1.80e5 | 1.66e5 | 1.67e5 | 13910 | inactive |
| CG32694 | DRSC17844 | 84490 | 84080 | 1.30e5 | 1.08e5 | 7225 | inactive |
| CG32694 | DRSC17855 | 1.16e5 | 1.11e5 | 1.65e5 | 1.55e5 | 10470 | inactive |
| CG32694 | DRSC22670 | – | – | – | – | – | inactive |
| CG33177 | DRSC19949 | 1.35e5 | 1.10e5 | 1.36e5 | 1.79e5 | 16300 | inactive |
| CG3281 | DRSC15470 | 1.90e5 | 1.85e5 | 1.28e5 | 1.51e5 | 11560 | inactive |
| CG15127 | DRSC05802 | 96085 | 1.03e5 | 1.50e5 | 1.24e5 | 9455 | inactive |
| CG15127 | DRSC06549 | 60685 | 50515 | 36310 | 38880 | 5070 | inactive |
| Synd (Syndapin) | DRSC15116 | 2.19e5 | 2.05e5 | 2.49e5 | 2.81e5 | 13335 | inactive |
| Phf5a (PHD finger protein 5a) | DRSC03261 | 1.75e5 | 1.88e5 | 2.45e5 | 1.81e5 | 8440 | inactive |
| CG10005 | DRSC14172 | 1.03e5 | 73425 | 72520 | 41730 | 5150 | inactive |
| Zasp66 (Z band alternatively spliced PDZ-motif protein 66) | DRSC08932 | 2.21e5 | 2.04e5 | 2.31e5 | 2.07e5 | 16155 | inactive |
| Zasp66 (Z band alternatively spliced PDZ-motif protein 66) | DRSC10631 | 1.18e5 | 89640 | 59535 | 21945 | 7965 | inactive |
| Zasp66 (Z band alternatively spliced PDZ-motif protein 66) | DRSC10632 | 2.27e5 | 2.04e5 | 2.42e5 | 1.93e5 | 9330 | inactive |
| CG33278 | DRSC10336 | 1.79e5 | 1.59e5 | 1.93e5 | 1.70e5 | 7565 | inactive |
| CG14185 | DRSC10184 | 1.03e5 | 1.03e5 | 1.09e5 | 83435 | 8970 | inactive |
| Rcc1 (Regulator of chromosome condensation 1) | DRSC09684 | 1.20e5 | 96025 | 69940 | 25845 | 7670 | inactive |

Next part (5 carried over from the part before).
| Target gene | dsRNA | induced reporter light, run 1, well a | induced reporter light, run 1, well b | control promoter light, run 1, well a | control promoter light, run 1, well b | uninduced reporter light, run 1, well a | activity call |
| --- | --- | --- | --- | --- | --- | --- | --- |
| Zasp66 (Z band alternatively spliced PDZ-motif protein 66) | DRSC10631 | 1.18e5 | 89640 | 59535 | 21945 | 7965 | inactive |
| Zasp66 (Z band alternatively spliced PDZ-motif protein 66) | DRSC10632 | 2.27e5 | 2.04e5 | 2.42e5 | 1.93e5 | 9330 | inactive |
| CG33278 | DRSC10336 | 1.79e5 | 1.59e5 | 1.93e5 | 1.70e5 | 7565 | inactive |
| CG14185 | DRSC10184 | 1.03e5 | 1.03e5 | 1.09e5 | 83435 | 8970 | inactive |
| Rcc1 (Regulator of chromosome condensation 1) | DRSC09684 | 1.20e5 | 96025 | 69940 | 25845 | 7670 | inactive |
| AhcyL2 (Adenosylhomocysteinase like 2) | DRSC14107 | 2.43e5 | 2.46e5 | 2.32e5 | 2.25e5 | 20700 | inactive |
| CG11885 | DRSC00329 | 1.61e5 | 1.81e5 | 3.30e5 | 2.78e5 | 15588 | inactive |
| Ccp84Ab | DRSC12587 | 1.13e5 | 1.17e5 | 75765 | 64490 | 7542 | inactive |
| goe (gone early) | DRSC19345 | 89210 | 68385 | 90680 | 73940 | 9732 | inactive |
| bumpel | DRSC16100 | 1.47e5 | 1.66e5 | 1.45e5 | 1.01e5 | 8240 | inactive |
| CG3792 | DRSC02725 | 1.35e5 | 1.19e5 | 1.21e5 | 1.33e5 | 8380 | inactive |
| CG1494 | DRSC20509 | 95210 | 88845 | 1.14e5 | 1.05e5 | 10605 | inactive |
| CG4364 | DRSC02742 | 1.45e5 | 1.40e5 | 1.50e5 | 1.59e5 | 10332 | inactive |
| CG2865 | DRSC18527 | 1.58e5 | 2.15e5 | 2.28e5 | 1.97e5 | 12945 | inactive |
| CG2865 | DRSC18528 | 87420 | 86645 | 68300 | 63855 | 13410 | inactive |
| tn (thin) | DRSC05768 | 37270 | 43995 | 51020 | 37685 | 4810 | inactive |
| tn (thin) | DRSC06532 | 90760 | 97940 | 1.64e5 | 2.42e5 | 12590 | active |
| Sap130 (Sin3A-associated protein 130) | DRSC09680 | 1.77e5 | 1.73e5 | 1.52e5 | 1.63e5 | 2610 | active |
| DUBAI + Tmem18 | DRSC05344 | 2.14e5 | 1.86e5 | 2.73e5 | 2.07e5 | 16485 | inactive |
| CG14805 | DRSC18554 | 1.04e5 | 1.09e5 | 1.79e5 | 1.67e5 | 7335 | inactive |
| CG9864 | DRSC07346 | 41170 | 27450 | 50265 | 45955 | 3955 | inactive |
| CG9698 | DRSC16539 | 1.31e5 | 1.11e5 | 1.67e5 | 1.41e5 | 10550 | inactive |
| Ir75c (Ionotropic receptor 75c) | DRSC10190 | 2.22e5 | 1.56e5 | 2.46e5 | 2.72e5 | 9565 | inactive |
| CG8100 | DRSC10961 | 2.47e5 | 2.19e5 | 4.30e5 | 4.00e5 | 7950 | inactive |
| CG12155 | DRSC17826 | 1.62e5 | 1.74e5 | 1.41e5 | 1.11e5 | 11270 | inactive |
| fal (falten) | DRSC11087 | 1.31e5 | 1.29e5 | 1.03e5 | 1.35e5 | 10470 | inactive |
| CG11298 | DRSC04100 | 1.75e5 | 1.84e5 | 1.94e5 | 1.86e5 | 13775 | inactive |
